Values from PubChem BioAssay AID504784 (Drosophila RNAi Screening Center, 2011)
Screen: 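Genome-wide knock-down for genes giving too much or too little stored lipid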 (primary screen). System: Drosophila Kc167 embryonic cells. Knock-down reagent: long dsRNA against Drosophila genes, about 250 ng dsRNA per well. Timing: 4 days. Challenge: cells fed 400 µM oleic acid bound to BSA. Measured: 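Microscope images give a droplet-to-nucleus area ratio, taken as log and converted to a screen-wide B-score; higher values mean greater lipid storage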. Reading the numbers: droplet/nuclear area B-score: higher = more stored lipid (overstorage).
The screen tested about 17,000 reagents; below is a random part of those that have a named target and a result. 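Each column is one replicate's B-score; the combined score over replicates was not deposited, so single values may mislead.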

Knock-down of CG9471 [DRSC16499] resulted in: droplet/nuclear area B-score, replicate 1 = -0.659; droplet/nuclear area B-score, replicate 2 = -0.00508. With knock-down of CG13631 [DRSC14632], the record shows droplet/nuclear area B-score, replicate 1 = 1.4; droplet/nuclear area B-score, replicate 2 = 0.167. Depletion of CG13631 [DRSC23168] came out at: droplet/nuclear area B-score, replicate 1 = -0.02; droplet/nuclear area B-score, replicate 2 = 1.51. CG11977 [DRSC14454] gave droplet/nuclear area B-score, replicate 1 = -1.59; droplet/nuclear area B-score, replicate 2 = 1.54. Knock-down of Gnptab [DRSC07057] came out at: droplet/nuclear area B-score, replicate 1 = -0.127; droplet/nuclear area B-score, replicate 2 = -0.174. Knock-down of CG32237 [DRSC08312] came out at: droplet/nuclear area B-score, replicate 1 = 0.723; droplet/nuclear area B-score, replicate 2 = 0.478.

For CG32237 [DRSC08315], the entry reads droplet/nuclear area B-score, replicate 1 = -1.29; droplet/nuclear area B-score, replicate 2 = -1.42. SoYb [DRSC02901] gave droplet/nuclear area B-score, replicate 1 = 0.231; droplet/nuclear area B-score, replicate 2 = 1.25. With knock-down of CG12698 [DRSC19485], the record shows droplet/nuclear area B-score, replicate 1 = -0.279; droplet/nuclear area B-score, replicate 2 = 1.11. For CG31221 [DRSC14335] the deposit lists droplet/nuclear area B-score, replicate 1 = -1.97; droplet/nuclear area B-score, replicate 2 = -0.166. For CG31221 [DRSC16217] the deposit lists droplet/nuclear area B-score, replicate 1 = 0.0563; droplet/nuclear area B-score, replicate 2 = 0.0784. CG15708 [DRSC06579] gave droplet/nuclear area B-score, replicate 1 = 0.0481; droplet/nuclear area B-score, replicate 2 = -0.398.

Silencing of CG9801 [DRSC16568] resulted in: droplet/nuclear area B-score, replicate 1 = 1.35; droplet/nuclear area B-score, replicate 2 = 0.797. After knock-down of CG18233 [DRSC10308], the screen gave droplet/nuclear area B-score, replicate 1 = -0.901; droplet/nuclear area B-score, replicate 2 = -0.358. Sos (Son of sevenless) [DRSC03439] scored droplet/nuclear area B-score, replicate 1 = 1.7; droplet/nuclear area B-score, replicate 2 = 0.602. Tim17a1 [DRSC14184] scored droplet/nuclear area B-score, replicate 1 = 0.181; droplet/nuclear area B-score, replicate 2 = 0.861. Glt (Glutactin) [DRSC03333] scored droplet/nuclear area B-score, replicate 1 = -0.607; droplet/nuclear area B-score, replicate 2 = -0.823. Depletion of CG4611 [DRSC10434] resulted in: droplet/nuclear area B-score, replicate 1 = 0.253; droplet/nuclear area B-score, replicate 2 = -0.498.

CG6567 [DRSC16066] scored droplet/nuclear area B-score, replicate 1 = 0.105; droplet/nuclear area B-score, replicate 2 = -1.89. zfh1 (Zn finger homeodomain 1) [DRSC14014] showed droplet/nuclear area B-score, replicate 1 = 2.47; droplet/nuclear area B-score, replicate 2 = 0.015. zfh1 (Zn finger homeodomain 1) [DRSC17098] scored droplet/nuclear area B-score, replicate 1 = 0.915. Silencing of Cln3 [DRSC10520] resulted in: droplet/nuclear area B-score, replicate 1 = -0.00504; droplet/nuclear area B-score, replicate 2 = -0.186. isoQC (iso Glutaminyl cyclase) [DRSC11790] gave droplet/nuclear area B-score, replicate 1 = -0.107; droplet/nuclear area B-score, replicate 2 = 0.00115. EMC2B (ER membrane protein complex subunit 2B) [DRSC15506] showed droplet/nuclear area B-score, replicate 1 = 2.39; droplet/nuclear area B-score, replicate 2 = -0.104.

CG17028 [DRSC10239] showed droplet/nuclear area B-score, replicate 1 = 0.175; droplet/nuclear area B-score, replicate 2 = -0.388. CG33158 [DRSC09708] scored droplet/nuclear area B-score, replicate 1 = 1.56; droplet/nuclear area B-score, replicate 2 = -0.4. CG33158 [DRSC09709] gave droplet/nuclear area B-score, replicate 1 = 0; droplet/nuclear area B-score, replicate 2 = -0.0498. CG33158 [DRSC10438] scored droplet/nuclear area B-score, replicate 1 = -0.985; droplet/nuclear area B-score, replicate 2 = -0.468.

Records listed so far whose gene name begins with S or s (2):
SoYb [DRSC02901] — droplet/nuclear area B-score, replicate 1 = 0.231; droplet/nuclear area B-score, replicate 2 = 1.25
Sos (Son of sevenless) [DRSC03439] — droplet/nuclear area B-score, replicate 1 = 1.7; droplet/nuclear area B-score, replicate 2 = 0.602
